Data as given in PubChem BioAssay AID1224830 (NIAID, 2016)

Aim: 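Genes whose knock-down alters the TNF-alpha reporter response to LPS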 (primary screen)
System: human THP-1 monocytic leukaemia cells, TNF dual-luciferase reporter clone, PMA-differentiated to macrophage-like cells
Knock-down reagent: siRNA pool against human genes, 50 nM
Timing: LPS for 4 h, given about 3 days after siRNA transfection
Challenge: bacterial LPS (TLR4 ligand), 10 ng/ml
Measured: 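Ratio of firefly to renilla light, scaled to the plate median and expressed as a robust z-score per replicate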
Direction: TNF reporter robust z-score: higher = stronger TNF reporter response to LPS
Hit rule: 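Each well counts as active if its z-score is over 2.8 or under -1.5; controls are left without a call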
Here is a random part of about 18,000 reagents tested. Over the whole deposit, about 2,900 (16%) got an active call. 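Calls are made per well; low scores hint the gene aids the LPS response, high scores that it dampens it.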 A number with no mark means an inactive call. Repeated entries: four replicate wells of each siRNA pool.

target | TNF reporter robust z-score
ATRNL1 (attractin like 1) | 0.34
ATRNL1 (attractin like 1) | -0.11
ATRNL1 (attractin like 1) | -0.34
ATRNL1 (attractin like 1) | 0.09
USP27X (ubiquitin specific peptidase 27 X-linked) | -0.13
USP27X (ubiquitin specific peptidase 27 X-linked) | 0.17
USP27X (ubiquitin specific peptidase 27 X-linked) | 0.43
USP27X (ubiquitin specific peptidase 27 X-linked) | 0.9
CPD (carboxypeptidase D) | 0.66
CPD (carboxypeptidase D) | 0.45
CPD (carboxypeptidase D) | 0.08
CPD (carboxypeptidase D) | 0.5
EMC6 (ER membrane protein complex subunit 6) | 0.87
EMC6 (ER membrane protein complex subunit 6) | 1.12
EMC6 (ER membrane protein complex subunit 6) | 0.07
EMC6 (ER membrane protein complex subunit 6) | -0.31
SLC25A29 | -0.28
SLC25A29 | 0.3
SLC25A29 | -0.47
SLC25A29 | 0.2

3 successive entries from above, quoted:
target | TNF reporter robust z-score
USP27X (ubiquitin specific peptidase 27 X-linked) | -0.13
USP27X (ubiquitin specific peptidase 27 X-linked) | 0.17
USP27X (ubiquitin specific peptidase 27 X-linked) | 0.43

Further reagents follow.
target | TNF reporter robust z-score
CDC42EP5 (CDC42 effector protein 5) | 0.39
CDC42EP5 (CDC42 effector protein 5) | 0.64
CDC42EP5 (CDC42 effector protein 5) | 0.48
CDC42EP5 (CDC42 effector protein 5) | 0.41
FZD10 (frizzled class receptor 10) | 0.04
FZD10 (frizzled class receptor 10) | 1.3
FZD10 (frizzled class receptor 10) | 0.72
FZD10 (frizzled class receptor 10) | 0.87
PLK4 (polo like kinase 4) | -0.17
PLK4 (polo like kinase 4) | -0.41
PLK4 (polo like kinase 4) | -1.03
PLK4 (polo like kinase 4) | 0.28
UVRAG (UV radiation resistance associated) | -0.62
UVRAG (UV radiation resistance associated) | -0.34
UVRAG (UV radiation resistance associated) | -0.26
UVRAG (UV radiation resistance associated) | 0.36
ADAMTS10 (ADAM metallopeptidase with thrombospondin type 1 motif 10) | -0.62
ADAMTS10 (ADAM metallopeptidase with thrombospondin type 1 motif 10) | -0.58
ADAMTS10 (ADAM metallopeptidase with thrombospondin type 1 motif 10) | -1.15
ADAMTS10 (ADAM metallopeptidase with thrombospondin type 1 motif 10) | 1.64
ZNF626 (zinc finger protein 626) | 0.35
ZNF626 (zinc finger protein 626) | 0.17
ZNF626 (zinc finger protein 626) | 0.13
ZNF626 (zinc finger protein 626) | 0.04
SNAP23 (synaptosome associated protein 23) | 2.6
SNAP23 (synaptosome associated protein 23) | 2.18
SNAP23 (synaptosome associated protein 23) | 2.54
SNAP23 (synaptosome associated protein 23) | -0.29
